PubChem BioAssay AID1259308 – NCATS – 2017
Shown is a random part of about 59,000 reagents. Of all reagents, about 1,510 (2.6%) are marked active. 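Calls use total luciferase alone and ignore viability, so some active siRNAs may act by altering cell number.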 A number with no mark means an inactive call. Reagents against one gene are numbered here. Further read-outs or replicates are left out here.

Test: 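Candidate targets for better recombinant protein yield in mammalian cells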 (primary screen)
Cell system: human HEK293 embryonic kidney cells stably expressing firefly luciferase (HEK-CMV-Luc2-Hygro)
Reagent: single siRNA against human genes, 0.8 pmol siRNA per well
Timing: 72 h
Detection: 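Reporter luminescence and viable-cell signal on separate replicate plates, given as percent of non-targeting control and median/MAD z-scores, plus per-cell luciferase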
Direction: total luciferase, z-score and total luciferase, % of control: higher = more reporter protein produced
Rule for the call: 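An siRNA counts as active if its total luciferase robust z-score exceeds 3; genes with two or more such siRNAs out of three were retested with fresh siRNAs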
Calls: active = raised luciferase; inactive = no rise

UROD #1 | total luciferase, z-score: 0.132; total luciferase, % of control: 84.5
UROD #2 | total luciferase, z-score: 0.422; total luciferase, % of control: 90.3
UROD #3 | total luciferase, z-score: 0.266; total luciferase, % of control: 87.2
NEK8 #1 | total luciferase, z-score: -0.33; total luciferase, % of control: 75.3
NEK8 #2 | total luciferase, z-score: 1.34; total luciferase, % of control: 109
NEK8 #3 | total luciferase, z-score: -0.142; total luciferase, % of control: 79.1
RPSAP48 #1 | total luciferase, z-score: -0.951; total luciferase, % of control: 63
RPSAP48 #2 | total luciferase, z-score: -0.0414; total luciferase, % of control: 81.1
RPSAP48 #3 | total luciferase, z-score: 0.31; total luciferase, % of control: 88.1
SMARCE1 #1 | total luciferase, z-score: 1.06; total luciferase, % of control: 103
SMARCE1 #2 | total luciferase, z-score: -0.487; total luciferase, % of control: 72.2
SMARCE1 #3 | total luciferase, z-score: -0.236; total luciferase, % of control: 77.2
ZNF2 #1 | total luciferase, z-score: -0.928; total luciferase, % of control: 63.4
ZNF2 #2 | total luciferase, z-score: -1.18; total luciferase, % of control: 58.3
ZNF2 #3 | total luciferase, z-score: -0.888; total luciferase, % of control: 64.2
PUS1 #1 | total luciferase, z-score: -1.37; total luciferase, % of control: 54.6
PUS1 #2 | total luciferase, z-score: 1.15; total luciferase, % of control: 105
PUS1 #3 | total luciferase, z-score: 0.747; total luciferase, % of control: 96.7
MUCL3 #1 | total luciferase, z-score: 2.07; total luciferase, % of control: 123
MUCL3 #2 | total luciferase, z-score: 0.383; total luciferase, % of control: 89.5
MUCL3 #3 | total luciferase, z-score: -0.993; total luciferase, % of control: 62.1
OR52B6 #1 | total luciferase, z-score: -0.475; total luciferase, % of control: 72.4
OR52B6 #2 | total luciferase, z-score: 0.117; total luciferase, % of control: 84.2
OR52B6 #3 | total luciferase, z-score: -0.142; total luciferase, % of control: 79.1
ACOT1 #1 | total luciferase, z-score: 1.39; total luciferase, % of control: 110
ACOT1 #2 | total luciferase, z-score: 2.3; total luciferase, % of control: 128
ACOT1 #3 | total luciferase, z-score: 0.357; total luciferase, % of control: 89
TRMT10B #1 | total luciferase, z-score: -0.47; total luciferase, % of control: 72.5
TRMT10B #2 | total luciferase, z-score: -0.297; total luciferase, % of control: 76
TRMT10B #3 | total luciferase, z-score: -0.241; total luciferase, % of control: 77.1
AGFG2 #1 | total luciferase, z-score: 4.89 (active); total luciferase, % of control: 179
AGFG2 #2 | total luciferase, z-score: -0.0276; total luciferase, % of control: 81.3
AGFG2 #3 | total luciferase, z-score: -0.576; total luciferase, % of control: 70.4
DPY19L3 #1 | total luciferase, z-score: 0.932; total luciferase, % of control: 100
DPY19L3 #2 | total luciferase, z-score: 0.0412; total luciferase, % of control: 82.7
DPY19L3 #3 | total luciferase, z-score: 2.13; total luciferase, % of control: 124
DPY19L3 #4 | total luciferase, z-score: 0.24; total luciferase, % of control: 86.7
DPY19L3 #5 | total luciferase, z-score: 0.747; total luciferase, % of control: 96.7
DPY19L3 #6 | total luciferase, z-score: 0.678; total luciferase, % of control: 95.4
KLHL10 #1 | total luciferase, z-score: -0.627; total luciferase, % of control: 69.4
KLHL10 #2 | total luciferase, z-score: -0.445; total luciferase, % of control: 73
KLHL10 #3 | total luciferase, z-score: -0.277; total luciferase, % of control: 76.4
